Results as given in publication PMC7819943, “Rice protein-binding microarrays: a tool to detect cis-acting elements near promoter regions in rice”.
This is one part of the list.

target: T1, OsSMF1 (Oryza sativa, UniProt Q6ZLB0 1-436); test: protein-binding microarray (RPBM); PBS, 2% BSA, 51.3 ng/ul salmon testes DNA, 50 uM zinc acetate, 200 nM TF, 25 C, 1 h; high values mean tight binding; conditions: protein: recombinant; tags: N-terminal polyhistidine and DsRed monomer fusion (pET32a); chain copies: 2; label: CyDye5-dUTP incorporated in the synthesized complementary strand; 3' TTTTT single-stranded linker to array surface; dsDNA, one strand shown
T1 sequence: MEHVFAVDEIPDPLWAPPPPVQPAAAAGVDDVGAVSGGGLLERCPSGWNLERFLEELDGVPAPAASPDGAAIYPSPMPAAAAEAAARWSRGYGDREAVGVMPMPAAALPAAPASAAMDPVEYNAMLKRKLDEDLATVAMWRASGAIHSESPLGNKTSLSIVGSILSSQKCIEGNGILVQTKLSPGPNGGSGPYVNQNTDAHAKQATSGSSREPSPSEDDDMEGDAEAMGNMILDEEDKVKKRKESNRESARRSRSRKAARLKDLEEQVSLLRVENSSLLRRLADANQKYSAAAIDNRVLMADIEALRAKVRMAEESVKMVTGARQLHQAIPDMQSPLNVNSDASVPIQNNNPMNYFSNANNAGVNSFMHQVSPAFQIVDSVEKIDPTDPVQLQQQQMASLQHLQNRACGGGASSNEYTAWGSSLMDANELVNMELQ
Outline: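 In PBS with 2% BSA, salmon testes DNA and 50 µM zinc acetate, 200 nM protein was incubated on a custom Agilent array at 25 °C for 1 h and then washed off. The array had been made double-stranded by primer extension with Cy5-dUTP and blocked with 2% BSA. The proteins were transcription factors fused N-terminally to polyhistidine and DsRed, expressed in E. coli BL21-CodonPlus and purified on Ni–NTA. The binding signal is per-feature fluorescence intensity (arbitrary units) from an Axon 4000B scanner.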

Row | Sequence | binding signal
1 | GGTGTATATACATGTATTTTAGTCCCCAAACCTGAGATGACGGAGTCACCTAGTGCAG | 4120 fluorescence intensity (a.u.)
2 | GGGAGAGTTAGTTAGTTGAGGTGGTTACGCGTCGGCGGCGCGGAGTCACCTAGTGCAG | 5150 fluorescence intensity (a.u.)
3 | AAACACTCCCTAACCACCTGTTCCAAGCACTGGCACACCCCGGAGTCACCTAGTGCAG | 3260 fluorescence intensity (a.u.)
4 | AGCTTCGTCGGCGGCGATGGCGGCGGCGGCGGCGCTGTGGCGGAGTCACCTAGTGCAG | 28000 fluorescence intensity (a.u.)
5 | GGGCTCCCTCCACCGCCGCCTCCGCCACCGCCTCGCCGCCCGGAGTCACCTAGTGCAG | 3150 fluorescence intensity (a.u.)
6 | ACTGAACTGGTCACTGTCATTCATTTTCTTAAGCTGCAATCGGAGTCACCTAGTGCAG | 3750 fluorescence intensity (a.u.)
7 | TGGCCCCTTGACACGTGGATCCACACCCCATGGTTCAGGCCGGAGTCACCTAGTGCAG | 18000 fluorescence intensity (a.u.)
8 | GGGAGATTTGTAGTGCCGTGATAATTATGATGCCGCCAAACGGAGTCACCTAGTGCAG | 3820 fluorescence intensity (a.u.)
9 | TAGCAATAGTTACATATTTAATCTCATGCAAGTATACAACCGGAGTCACCTAGTGCAG | 23600 fluorescence intensity (a.u.)
10 | GACGCAATGTGTGTATGACAGGTGAGACCATATGTTAATACGGAGTCACCTAGTGCAG | 3180 fluorescence intensity (a.u.)
11 | CGGATTGGGGTAGTGGAGCATCTAGTGGCATCATCCGTAGCGGAGTCACCTAGTGCAG | 3600 fluorescence intensity (a.u.)
12 | CTAAGCAAGCTATATGCTTATATGGAAGAGAGAGATAGGACGGAGTCACCTAGTGCAG | 3220 fluorescence intensity (a.u.)
13 | GAAGTGTCCATATTGAGTCATTTGTCCATTTGCCCAGGCACGGAGTCACCTAGTGCAG | 4960 fluorescence intensity (a.u.)
14 | TTATGTGGTTGTTTAAATCCACGTAGCCATCACGCATGAACGGAGTCACCTAGTGCAG | 6010 fluorescence intensity (a.u.)
15 | TTTGCCATGTAGACGTCACGTCAGCTTAAATCGTTGTTCACGGAGTCACCTAGTGCAG | 16600 fluorescence intensity (a.u.)
16 | ATCCTTCATTATGTTAGAGTACCACATGGGAAGTCGAGACCGGAGTCACCTAGTGCAG | 3750 fluorescence intensity (a.u.)
17 | CACAACTACGTAGACGGGCGTTTGCGGCCGAAAATTTGACCGGAGTCACCTAGTGCAG | 3730 fluorescence intensity (a.u.)
18 | ACCCGTGGGTATAAAAGCCTAGCGGTAAGTTGCTATAGAGCGGAGTCACCTAGTGCAG | 37600 fluorescence intensity (a.u.)
19 | TTAGCCAAGTTGTTATGGAAGTCATGAGGCAGCTTGAAGGCGGAGTCACCTAGTGCAG | 3700 fluorescence intensity (a.u.)
20 | CGATTCGACGCCCTCCTCGTCTGCTGAATTCCTTCGATTCCGGAGTCACCTAGTGCAG | 3310 fluorescence intensity (a.u.)
21 | CGACCGTACGTACGTGGATAATATGCAATGCATATGCATTCGGAGTCACCTAGTGCAG | 4580 fluorescence intensity (a.u.)

Row | Sequence | binding signal
22 | CGAGTGGCCGCGGGCGGGCTCCGACGACGTGGGCGAGTGGCGGAGTCACCTAGTGCAG | 4120 fluorescence intensity (a.u.)
23 | GTGTATGCCACGTAGGACTAAAACTGCTCCGGATTGAGGGCGGAGTCACCTAGTGCAG | 17800 fluorescence intensity (a.u.)
24 | ACCACTAAATATTCTTAAATGATTATATTAAAATGAGCATCGGAGTCACCTAGTGCAG | 21100 fluorescence intensity (a.u.)
25 | CTGCTCCCGTATAATTTATTTCGTGCGTGCGTGTTTAATTCGGAGTCACCTAGTGCAG | 4540 fluorescence intensity (a.u.)
26 | GTTTTAGGATATATCAAATCCGATTCTAAATTGCTACTCCCGGAGTCACCTAGTGCAG | 3420 fluorescence intensity (a.u.)
27 | GGCTATATGAGGAGACGCTCGCGATAAACCCTAGCTCCACCGGAGTCACCTAGTGCAG | 26000 fluorescence intensity (a.u.)
28 | ATTGGCTAGCTTGTACTCCAGCATGGATTATGCATGTGTTCGGAGTCACCTAGTGCAG | 3250 fluorescence intensity (a.u.)
29 | CAGCAACCGAGGTGCCTTCGTCAGCTTCCAAAGAAGCTACCGGAGTCACCTAGTGCAG | 5030 fluorescence intensity (a.u.)
30 | TTGGTTCTCTGTCACGTCAAGTGCAACGAACGGCACGTCTCGGAGTCACCTAGTGCAG | 4330 fluorescence intensity (a.u.)
31 | CTATTTTCTCTTGTCCACGTCAGCAAAATAAGTGTTATATCGGAGTCACCTAGTGCAG | 16600 fluorescence intensity (a.u.)
32 | CATACTCCTAGAAAATGACAAGTCAGCCTCTTGCAATCACCGGAGTCACCTAGTGCAG | 5230 fluorescence intensity (a.u.)
33 | GTCCACATTAGTAATACGCGTCACACACACGAGGAAATTACGGAGTCACCTAGTGCAG | 4120 fluorescence intensity (a.u.)
34 | CCTACACACTCGACAATTGCCAAGTCAGAAAGCAATATACCGGAGTCACCTAGTGCAG | 4200 fluorescence intensity (a.u.)
35 | GTGAGCCCACATGTCATCCTTTATTCCTCCTCCCTCTCTCCGGAGTCACCTAGTGCAG | 3210 fluorescence intensity (a.u.)
36 | AAGAATGCCATGTACACTACTCTTTCTGAGCTTGTGCAAGCGGAGTCACCTAGTGCAG | 4760 fluorescence intensity (a.u.)
37 | TATTATCTGCTGGGTACTCTCTGGTCGCACCTGCGTGGCTCGGAGTCACCTAGTGCAG | 3540 fluorescence intensity (a.u.)
38 | AAATCTGACCGACTGCCACCGTGCCGCCCGTGATGAACACCGGAGTCACCTAGTGCAG | 3720 fluorescence intensity (a.u.)
39 | CCCTCCGTGGTATATATCCACGTCTCCCTTAAACGCAACCCGGAGTCACCTAGTGCAG | 4060 fluorescence intensity (a.u.)
40 | CTACAATGAATTAAGGTGCAAACGTGGAGGATGAAACTAACGGAGTCACCTAGTGCAG | 4130 fluorescence intensity (a.u.)
41 | AGACATTATTTATAACTACGCACGTGGGCAAGTACTTATCCGGAGTCACCTAGTGCAG | 4690 fluorescence intensity (a.u.)
42 | ATTTATCCACGTCATCACGATTTACTCATGAGTACTTATGCGGAGTCACCTAGTGCAG | 17700 fluorescence intensity (a.u.)

Reformatted with each value named: entries from further up.
CGATTCGACGCCCTCCTCGTCTGCTGAATTCCTTCGATTCCGGAGTCACCTAGTGCAG
  binding signal = 3310 fluorescence intensity (a.u.)
CGACCGTACGTACGTGGATAATATGCAATGCATATGCATTCGGAGTCACCTAGTGCAG
  binding signal = 4580 fluorescence intensity (a.u.)
CGAGTGGCCGCGGGCGGGCTCCGACGACGTGGGCGAGTGGCGGAGTCACCTAGTGCAG
  binding signal = 4120 fluorescence intensity (a.u.)
